From paper PMC3549954, “A Lectin with Highly Potent Inhibitory Activity toward Breast Cancer Cells from Edible Tubers of Dioscorea opposita cv. Nagaimo” (PLoS ONE, 2013)

Test system: T1, nagaimo lectin
T1 construct: native, purified from supermarket tubers (Q-Sepharose, Mono Q, Superdex 75); 70-kDa dimer of 35-kDa subunits (70 kDa in non-reducing SDS-PAGE); N-terminus NPFVFFVAINNP
Test: inhibition of hemagglutination (rabbit red blood cells)
Format: biochemical, Dioscorea polystachya
Details: PBS pH 7.2, room temperature; sugar binding site

SMILES	minimal concentration required for reduction of hemagglutinating activity
OC[C@H]1OC(O)[C@H](O)[C@@H](O)[C@H]1O (stereo partly drawn) [galactose]	20 mM
OC[C@H]1O[C@@H](O[C@H]2[C@H](O)[C@@H](O)C(O)O[C@@H]2CO)[C@H](O)[C@@H](O)[C@H]1O (stereo partly drawn) [lactose]	5 mM
OC[C@H]1O[C@H](OC[C@H]2O[C@H](O[C@]3(CO)O[C@H](CO)[C@@H](O)[C@@H]3O)[C@H](O)[C@@H](O)[C@@H]2O)[C@H](O)[C@@H](O)[C@H]1O [raffinose]	40 mM
